Laboratory results published in the supplement of paper PMC10849652.
The list shows a part of the results.

Sequences of proteins named here, by UniProt entry; tags and fusion partners are left off. A change or cut given only in a name is not applied to a line headed by its entry.
UniProt P01008, whole entry, looked up: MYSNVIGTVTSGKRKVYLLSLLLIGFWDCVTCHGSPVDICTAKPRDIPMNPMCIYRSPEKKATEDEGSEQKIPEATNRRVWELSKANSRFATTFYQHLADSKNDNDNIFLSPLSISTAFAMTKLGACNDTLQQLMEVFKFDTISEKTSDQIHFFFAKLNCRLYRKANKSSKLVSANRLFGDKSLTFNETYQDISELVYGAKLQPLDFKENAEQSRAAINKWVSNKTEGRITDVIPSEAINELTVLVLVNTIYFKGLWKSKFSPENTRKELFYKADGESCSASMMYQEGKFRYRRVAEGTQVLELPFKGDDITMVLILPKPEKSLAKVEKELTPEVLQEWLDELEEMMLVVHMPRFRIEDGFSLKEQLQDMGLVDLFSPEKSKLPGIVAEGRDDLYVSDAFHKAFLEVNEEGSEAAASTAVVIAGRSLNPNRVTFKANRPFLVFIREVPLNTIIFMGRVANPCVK
UniProt Q86TU7: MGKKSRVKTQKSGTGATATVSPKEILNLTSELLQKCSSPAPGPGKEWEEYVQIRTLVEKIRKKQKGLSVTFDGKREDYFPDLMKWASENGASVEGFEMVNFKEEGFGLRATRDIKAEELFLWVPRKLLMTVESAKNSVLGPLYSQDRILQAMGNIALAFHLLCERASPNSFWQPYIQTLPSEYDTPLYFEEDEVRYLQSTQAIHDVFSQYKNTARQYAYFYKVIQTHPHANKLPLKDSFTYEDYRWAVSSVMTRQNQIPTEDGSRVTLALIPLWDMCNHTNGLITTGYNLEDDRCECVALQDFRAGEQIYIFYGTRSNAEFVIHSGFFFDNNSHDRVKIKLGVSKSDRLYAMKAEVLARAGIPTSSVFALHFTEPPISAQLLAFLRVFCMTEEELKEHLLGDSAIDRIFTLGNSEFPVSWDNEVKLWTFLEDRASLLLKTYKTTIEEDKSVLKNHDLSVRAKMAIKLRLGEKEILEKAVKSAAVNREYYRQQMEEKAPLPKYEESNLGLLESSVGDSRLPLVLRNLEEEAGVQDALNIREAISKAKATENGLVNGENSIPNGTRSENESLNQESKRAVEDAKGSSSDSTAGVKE
UniProt Q8IXJ6: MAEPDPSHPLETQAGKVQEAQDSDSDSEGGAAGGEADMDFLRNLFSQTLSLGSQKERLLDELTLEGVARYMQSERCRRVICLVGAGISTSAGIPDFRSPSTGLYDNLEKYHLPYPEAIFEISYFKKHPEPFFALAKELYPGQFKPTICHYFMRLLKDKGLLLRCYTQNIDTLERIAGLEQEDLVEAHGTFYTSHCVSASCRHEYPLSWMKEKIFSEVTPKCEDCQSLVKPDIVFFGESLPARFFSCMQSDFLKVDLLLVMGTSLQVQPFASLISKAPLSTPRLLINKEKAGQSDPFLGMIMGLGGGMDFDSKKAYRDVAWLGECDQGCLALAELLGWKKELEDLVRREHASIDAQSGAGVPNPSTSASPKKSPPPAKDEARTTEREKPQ
UniProt O15047, whole entry, looked up: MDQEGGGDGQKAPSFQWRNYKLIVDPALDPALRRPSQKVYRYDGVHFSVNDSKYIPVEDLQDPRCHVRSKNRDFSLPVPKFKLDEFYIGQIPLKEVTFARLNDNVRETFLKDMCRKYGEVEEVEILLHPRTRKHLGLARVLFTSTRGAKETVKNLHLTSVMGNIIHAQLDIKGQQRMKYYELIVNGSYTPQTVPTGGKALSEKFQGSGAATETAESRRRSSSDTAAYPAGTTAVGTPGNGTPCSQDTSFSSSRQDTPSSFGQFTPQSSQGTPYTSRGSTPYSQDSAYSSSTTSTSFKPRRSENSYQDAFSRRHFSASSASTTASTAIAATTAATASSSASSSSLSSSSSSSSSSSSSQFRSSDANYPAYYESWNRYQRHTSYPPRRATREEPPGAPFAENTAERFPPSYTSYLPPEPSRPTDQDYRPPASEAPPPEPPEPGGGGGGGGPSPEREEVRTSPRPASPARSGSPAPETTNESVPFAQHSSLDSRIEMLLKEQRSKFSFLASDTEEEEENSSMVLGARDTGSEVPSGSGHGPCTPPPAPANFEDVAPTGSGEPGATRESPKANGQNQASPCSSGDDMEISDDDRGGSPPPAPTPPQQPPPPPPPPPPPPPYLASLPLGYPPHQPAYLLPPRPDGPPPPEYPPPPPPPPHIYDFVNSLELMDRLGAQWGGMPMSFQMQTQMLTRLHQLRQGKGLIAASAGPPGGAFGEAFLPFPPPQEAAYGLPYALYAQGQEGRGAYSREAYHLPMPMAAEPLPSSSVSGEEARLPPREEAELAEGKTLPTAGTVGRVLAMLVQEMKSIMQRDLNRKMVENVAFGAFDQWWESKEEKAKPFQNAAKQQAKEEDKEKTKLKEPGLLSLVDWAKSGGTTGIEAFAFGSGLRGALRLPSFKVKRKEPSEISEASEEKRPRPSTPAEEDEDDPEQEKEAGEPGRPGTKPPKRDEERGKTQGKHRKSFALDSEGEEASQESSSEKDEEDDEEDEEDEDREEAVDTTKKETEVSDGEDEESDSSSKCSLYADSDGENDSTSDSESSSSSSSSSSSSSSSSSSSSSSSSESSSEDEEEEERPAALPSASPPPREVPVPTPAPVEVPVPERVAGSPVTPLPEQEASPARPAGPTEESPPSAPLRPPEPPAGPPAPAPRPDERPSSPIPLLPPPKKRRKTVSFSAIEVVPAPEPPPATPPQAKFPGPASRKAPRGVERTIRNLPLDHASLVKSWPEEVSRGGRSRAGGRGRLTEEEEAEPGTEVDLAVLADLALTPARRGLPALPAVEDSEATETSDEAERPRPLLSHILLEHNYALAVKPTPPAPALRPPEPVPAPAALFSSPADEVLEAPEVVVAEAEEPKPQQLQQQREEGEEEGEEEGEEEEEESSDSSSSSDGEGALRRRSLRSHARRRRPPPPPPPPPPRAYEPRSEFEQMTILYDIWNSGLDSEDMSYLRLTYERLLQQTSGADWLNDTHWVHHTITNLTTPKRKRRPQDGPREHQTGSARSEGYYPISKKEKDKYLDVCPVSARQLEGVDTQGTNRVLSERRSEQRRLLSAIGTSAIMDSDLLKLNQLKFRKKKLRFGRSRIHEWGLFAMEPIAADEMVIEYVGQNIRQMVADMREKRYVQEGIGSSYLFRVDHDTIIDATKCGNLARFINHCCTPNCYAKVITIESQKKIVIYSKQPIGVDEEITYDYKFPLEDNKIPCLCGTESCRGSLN
UniProt P53985: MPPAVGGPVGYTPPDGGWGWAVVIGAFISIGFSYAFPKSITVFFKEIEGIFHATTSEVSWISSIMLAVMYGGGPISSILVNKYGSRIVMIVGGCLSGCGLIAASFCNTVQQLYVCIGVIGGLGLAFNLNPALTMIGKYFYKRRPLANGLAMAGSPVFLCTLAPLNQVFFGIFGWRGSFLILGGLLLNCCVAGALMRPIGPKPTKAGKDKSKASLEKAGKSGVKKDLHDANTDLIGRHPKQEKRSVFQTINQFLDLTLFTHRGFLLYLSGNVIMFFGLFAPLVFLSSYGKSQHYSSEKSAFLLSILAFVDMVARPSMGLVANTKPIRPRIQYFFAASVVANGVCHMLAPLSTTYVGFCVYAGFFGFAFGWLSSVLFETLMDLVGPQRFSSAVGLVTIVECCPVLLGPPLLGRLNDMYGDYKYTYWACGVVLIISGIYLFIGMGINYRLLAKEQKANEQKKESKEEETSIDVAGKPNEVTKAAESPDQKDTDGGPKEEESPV
UniProt Q9Y371: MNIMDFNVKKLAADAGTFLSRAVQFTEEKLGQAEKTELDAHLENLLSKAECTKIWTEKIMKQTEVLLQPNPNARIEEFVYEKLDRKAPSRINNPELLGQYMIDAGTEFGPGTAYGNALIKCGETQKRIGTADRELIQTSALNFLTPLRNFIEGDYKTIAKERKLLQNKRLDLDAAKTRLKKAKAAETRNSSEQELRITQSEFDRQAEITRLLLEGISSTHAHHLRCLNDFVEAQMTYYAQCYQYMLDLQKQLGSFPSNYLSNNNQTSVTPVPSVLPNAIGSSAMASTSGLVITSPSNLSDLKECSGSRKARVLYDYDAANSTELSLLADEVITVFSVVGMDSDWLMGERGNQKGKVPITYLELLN
UniProt Q9BYW2: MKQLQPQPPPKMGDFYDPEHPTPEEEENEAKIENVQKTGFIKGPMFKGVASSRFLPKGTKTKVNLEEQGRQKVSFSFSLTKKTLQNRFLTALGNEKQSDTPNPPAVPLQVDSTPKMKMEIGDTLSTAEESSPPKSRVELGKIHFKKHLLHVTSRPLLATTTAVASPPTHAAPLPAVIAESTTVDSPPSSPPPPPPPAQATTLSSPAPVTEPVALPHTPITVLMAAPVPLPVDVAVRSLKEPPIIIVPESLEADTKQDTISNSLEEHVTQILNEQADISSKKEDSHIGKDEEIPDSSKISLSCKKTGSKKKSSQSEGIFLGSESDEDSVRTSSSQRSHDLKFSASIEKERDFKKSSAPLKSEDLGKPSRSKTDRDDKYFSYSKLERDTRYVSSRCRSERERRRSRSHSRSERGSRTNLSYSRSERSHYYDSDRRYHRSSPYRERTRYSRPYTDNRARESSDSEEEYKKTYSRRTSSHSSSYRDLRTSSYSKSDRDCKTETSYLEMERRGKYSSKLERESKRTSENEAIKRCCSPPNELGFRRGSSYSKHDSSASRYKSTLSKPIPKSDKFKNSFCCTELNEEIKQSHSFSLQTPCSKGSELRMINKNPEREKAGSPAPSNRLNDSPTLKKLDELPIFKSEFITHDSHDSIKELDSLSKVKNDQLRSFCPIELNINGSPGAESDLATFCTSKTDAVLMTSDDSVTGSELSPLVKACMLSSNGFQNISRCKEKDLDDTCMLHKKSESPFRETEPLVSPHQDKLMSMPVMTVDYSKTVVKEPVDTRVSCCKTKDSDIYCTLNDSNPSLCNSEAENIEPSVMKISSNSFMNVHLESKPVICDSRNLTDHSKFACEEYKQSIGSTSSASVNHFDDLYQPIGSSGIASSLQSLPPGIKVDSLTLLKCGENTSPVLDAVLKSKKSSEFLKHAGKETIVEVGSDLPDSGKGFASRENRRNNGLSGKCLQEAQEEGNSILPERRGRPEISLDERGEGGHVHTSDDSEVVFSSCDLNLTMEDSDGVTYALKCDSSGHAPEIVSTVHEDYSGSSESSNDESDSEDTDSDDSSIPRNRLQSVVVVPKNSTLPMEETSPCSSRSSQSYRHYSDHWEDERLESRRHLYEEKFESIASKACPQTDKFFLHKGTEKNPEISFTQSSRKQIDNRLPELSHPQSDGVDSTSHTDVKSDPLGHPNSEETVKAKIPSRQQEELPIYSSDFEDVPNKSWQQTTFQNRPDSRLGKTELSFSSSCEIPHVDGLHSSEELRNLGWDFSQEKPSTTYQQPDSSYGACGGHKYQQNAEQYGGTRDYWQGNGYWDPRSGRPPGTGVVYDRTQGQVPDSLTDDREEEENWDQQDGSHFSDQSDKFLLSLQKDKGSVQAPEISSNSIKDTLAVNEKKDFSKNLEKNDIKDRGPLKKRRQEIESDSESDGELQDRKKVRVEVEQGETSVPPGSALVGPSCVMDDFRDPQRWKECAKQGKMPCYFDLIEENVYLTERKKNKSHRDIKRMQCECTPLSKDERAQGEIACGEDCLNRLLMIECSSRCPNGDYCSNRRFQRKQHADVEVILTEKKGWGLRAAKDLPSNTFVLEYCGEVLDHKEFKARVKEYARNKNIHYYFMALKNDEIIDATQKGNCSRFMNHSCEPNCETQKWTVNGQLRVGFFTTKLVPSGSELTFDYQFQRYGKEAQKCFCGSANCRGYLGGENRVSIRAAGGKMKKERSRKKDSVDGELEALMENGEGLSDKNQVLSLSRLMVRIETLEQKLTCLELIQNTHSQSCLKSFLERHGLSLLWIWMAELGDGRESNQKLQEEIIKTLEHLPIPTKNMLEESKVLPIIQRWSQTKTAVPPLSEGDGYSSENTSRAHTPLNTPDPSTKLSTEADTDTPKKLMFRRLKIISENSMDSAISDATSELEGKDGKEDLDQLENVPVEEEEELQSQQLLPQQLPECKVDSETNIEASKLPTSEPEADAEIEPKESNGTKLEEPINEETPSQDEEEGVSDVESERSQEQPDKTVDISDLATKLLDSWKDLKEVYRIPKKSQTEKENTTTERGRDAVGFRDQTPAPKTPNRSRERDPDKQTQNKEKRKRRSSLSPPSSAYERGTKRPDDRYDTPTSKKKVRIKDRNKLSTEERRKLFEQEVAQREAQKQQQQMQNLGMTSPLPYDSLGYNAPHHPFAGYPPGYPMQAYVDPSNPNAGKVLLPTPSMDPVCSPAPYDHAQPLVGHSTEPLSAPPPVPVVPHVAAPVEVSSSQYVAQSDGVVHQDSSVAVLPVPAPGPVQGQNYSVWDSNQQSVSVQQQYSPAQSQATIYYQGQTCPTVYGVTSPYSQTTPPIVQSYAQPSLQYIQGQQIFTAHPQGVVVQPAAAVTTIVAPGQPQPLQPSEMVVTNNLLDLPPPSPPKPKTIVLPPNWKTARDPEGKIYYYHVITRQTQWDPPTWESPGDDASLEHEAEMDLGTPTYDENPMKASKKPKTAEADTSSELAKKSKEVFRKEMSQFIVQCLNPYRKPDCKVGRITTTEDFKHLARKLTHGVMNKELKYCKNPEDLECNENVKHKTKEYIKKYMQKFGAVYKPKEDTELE

Experiments:
Test in all cases: log2 fold change, soluble protein after heating vs DMSO (PISA); higher = thermal stabilisation; K562 lysate, 10 uM; active = over 0.2 and 3.5 SD of the protein, either way, in both replicates (recomputed)
vemurafenib = compound: CCCS(=O)(=O)Nc1ccc(F)c(C(=O)c2c[nH]c3ncc(-c4ccc(Cl)cc4)cc23)c1F [vemurafenib]
Method in brief: (§1)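 Values give the log-two fold change in thermal stability against solvent controls, from duplicates. Crude K562 extract at 1 mg/mL protein, made by dounce homogenisation in PBS pH 7.4 with 1 mM MgCl2, was treated with 10 μM compound for 30 min. After 3 min heating across 48°C-58°C, aliquots were pooled, adjusted to 0.5% NP-40 at 4°C and centrifuged at 21,000xg for 90 min. The supernatant was measured by TMTpro 16plex LC-MS/MS with channel sums equalised.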

[1] = compound: CCCS(=O)(=O)Nc1ccc(F)c(C(=O)c2c[nH]c3ncc(Cl)cc23)c1F
Method in brief: as §1

barasertib = compound: CCN(CCCOc1ccc2c(Nc3cc(CC(=O)Nc4cccc(F)c4)[nH]n3)ncnc2c1)CCOP(=O)(O)O [barasertib]
Method in brief: as §1

[2] = compound: CC[C@@H]1C(=O)N(C)c2cnc(Nc3ccc(C(=O)NC4CCN(C)CC4)cc3OC)nc2N1C1CCCC1
Method in brief: as §1

volasertib = compound: CC[C@@H]1C(=O)N(C)c2cnc(Nc3ccc(C(=O)N[C@H]4CC[C@H](N5CCN(CC6CC6)CC5)CC4)cc3OC)nc2N1C(C)C [volasertib]
Method in brief: as §1

[3] = compound: CCn1c(C(=O)N(C2CC2)C2CC2)cc2c3c(ncn3C)c(Nc3cc(C)n(C)n3)nc21
Method in brief: as §1

[4] = compound: CCn1cc(-c2ccnc3[nH]c(-c4cccc(CN(C)C)c4)cc23)c(-c2ccc(NC(=O)N(C)C)cc2)n1
Method in brief: as §1

[5] = compound: CN1CCC(CNc2ccc3ncc(-c4cccc(OC(F)(F)F)c4)n3n2)CC1
Method in brief: as §1

saracatinib = compound: CN1CCN(CCOc2cc(OC3CCOCC3)c3c(Nc4c(Cl)ccc5c4OCO5)ncnc3c2)CC1 [saracatinib]
Method in brief: as §1

sotrastaurin = compound: CN1CCN(c2nc(C3=C(c4c[nH]c5ccccc45)C(=O)NC3=O)c3ccccc3n2)CC1 [sotrastaurin]
Method in brief: as §1

alvocidib = compound: CN1CC[C@H](c2c(O)cc(O)c3c(=O)cc(-c4ccccc4Cl)oc23)[C@H](O)C1 [alvocidib]
Method in brief: as §1

Tubastatin A = compound: CN1CCc2c(c3ccccc3n2Cc2ccc(C(=O)NO)cc2)C1 [Tubastatin A]
Method in brief: as §1

[6] = compound: CNC(=O)C1=CC=CC=C1NC2=NC(=NC=C2Cl)NC3=C(C=C(C=C3)N4CCOCC4)OC
Method in brief: as §1

defactinib = compound: CNC(=O)c1ccc(Nc2ncc(C(F)(F)F)c(NCc3nccnc3N(C)S(C)(=O)=O)n2)cc1 [defactinib]
Method in brief: as §1

[7] = compound: CNc1nc(-c2ccc3c(N)n[nH]c3c2)cc(N2C[C@@H](C(=O)NC3CCCCC3)CC[C@H]2C)n1
Method in brief: as §1

encorafenib = compound: COC(=O)N[C@@H](C)CNc1nccc(-c2cn(C(C)C)nc2-c2cc(Cl)cc(NS(C)(=O)=O)c2F)n1 [encorafenib]
Method in brief: as §1

[8] = compound: COC(=O)[C@H](CCSC)NC(=O)C1=C(C=C(C=C1)NC[C@H](CS)N)C2=CC=CC=C2
Method in brief: as §1

alisertib = compound: COc1cc(Nc2ncc3c(n2)-c2ccc(Cl)cc2C(c2c(F)cccc2OC)=NC3)ccc1C(=O)O [alisertib]
Method in brief: as §1

[9] = compound: COc1cc2nc(-c3cc(F)ccc3O)nc(N[C@@H]3CNC[C@H]3C(C)(C)O)c2cc1OC
Method in brief: as §1

gefitinib = compound: COc1cc2ncnc(Nc3ccc(F)c(Cl)c3)c2cc1OCCCN1CCOCC1 [gefitinib]
Method in brief: as §1

Measured: log2 fold change

SKA3 (UniProt Q8IX90)
inactive: vemurafenib 0.047 | [1] 0.011 | barasertib -0.062 | [2] 0.016 | volasertib 0.007 | [3] -0.018 | [4] -0.027 | [5] 0.023 | saracatinib 0.017 | sotrastaurin 0.028 | alvocidib -0.035 | Tubastatin A -0.056 | [6] 0.03 | defactinib 0.035 | [7] 0.04 | encorafenib 0.023 | [8] -0.051 | alisertib 0.039 | [9] -0.012 | gefitinib 0.063

SFPQ (UniProt P23246)
inactive: vemurafenib 0.003 | [1] -0.013 | barasertib 0.019 | [2] -0.003 | volasertib 0.003 | [3] 0.011 | [4] 0.066 | [5] -0.047 | saracatinib 0.003 | sotrastaurin 0.006 | alvocidib 0.013 | Tubastatin A 0.01 | [6] -0.017 | defactinib -0.011 | [7] 0.01 | encorafenib -0.012 | [8] 0.018 | alisertib 0.013 | [9] -0.003 | gefitinib 0.012

SH3BGRL (UniProt O75368)
inactive: vemurafenib -0.006 | [1] 0.001 | barasertib 0.182 | [2] 0.055 | volasertib 0.028 | [3] -0.007 | [4] 0.094 | [5] -0.045 | saracatinib -0.03 | sotrastaurin -0.024 | alvocidib 0.035 | Tubastatin A 0.071 | [6] 0.007 | defactinib 0.065 | [7] 0.024 | encorafenib 0.044 | [8] -0.028 | alisertib -0.009 | [9] -0.01 | gefitinib -0.001

SHOC2 (UniProt Q9UQ13)
inactive: vemurafenib 0.018 | [1] 0.022 | barasertib 0.002 | [2] 0.053 | volasertib -0.029 | [3] 0.022 | [4] -0.149 | [5] 0.063 | saracatinib -0.028 | sotrastaurin -0.024 | alvocidib -0.032 | Tubastatin A -0.012 | [6] -0.01 | defactinib -0.019 | [7] 0.019 | encorafenib -0.014 | [8] 0.019 | alisertib 0.076 | [9] 0.007 | gefitinib 0.032

SH3GL1 (UniProt Q99961)
inactive: vemurafenib -0.002 | [1] -0.01 | barasertib -0.019 | [2] 0.044 | volasertib -0.004 | [3] 0.018 | [4] 0.044 | [5] -0.022 | saracatinib 0.011 | sotrastaurin -0.03 | alvocidib 0.017 | Tubastatin A -0.109 | [6] 0.01 | defactinib 0.03 | [7] -0.003 | encorafenib -0.02 | [8] -0.042 | alisertib -0.011 | [9] 0.009 | gefitinib 0.002

SLC12A4 (UniProt Q9UP95)
inactive: vemurafenib 0.033 | [1] 0.038 | barasertib -0.004 | [2] 0.024 | volasertib -0.043 | [3] 0.032 | [4] 0.026 | [5] -0.065 | saracatinib 0.036 | sotrastaurin 0.019 | alvocidib 0.035 | Tubastatin A -0.001 | [6] 0.155 | defactinib -0.023 | [7] -0.073 | encorafenib 0.012 | [8] 0.038 | alisertib -0.01 | [9] -0.002 | gefitinib 0.063

SERPINC1 (UniProt P01008)
inactive: vemurafenib 0.165 | [1] -0.009 | barasertib 0.09 | [2] 0.124 | volasertib 0.015 | [3] -0.067 | [4] -0.112 | [5] 0.102 | saracatinib 0.043 | sotrastaurin -0.011 | alvocidib 0.011 | Tubastatin A 0.129 | [6] 0.047 | defactinib -0.027 | [7] -0.011 | encorafenib -0.179 | [8] 0.029 | alisertib -0.151 | [9] 0.161 | gefitinib -0.142

SETD3 (UniProt Q86TU7)
inactive: vemurafenib -0.017 | [1] 0.009 | barasertib 0.055 | [2] -0.074 | volasertib -0.016 | [3] -0.005 | [4] 0 | [5] -0.019 | saracatinib -0.032 | sotrastaurin 0.013 | alvocidib -0.018 | Tubastatin A -0.011 | [6] -0.023 | defactinib -0.021 | [7] -0.047 | encorafenib 0.025 | [8] 0.003 | alisertib 0 | [9] 0.001 | gefitinib 0.027

SIRT2 (UniProt Q8IXJ6)
inactive: vemurafenib 0.022 | [1] 0.011 | barasertib -0.076 | [2] 0.009 | volasertib 0.208 | [3] 0.004 | [4] 0.02 | [5] 0.04 | saracatinib 0.034 | sotrastaurin 0.012 | alvocidib -0.041 | Tubastatin A 0.017 | [6] 0.032 | defactinib -0.028 | [7] 0.017 | encorafenib 0.069 | [8] 0.003 | alisertib -0.021 | [9] -0.046 | gefitinib 0.057

SETD1A (UniProt O15047)
inactive: vemurafenib 0.012 | [1] 0.056 | barasertib 0.067 | [2] -0.096 | volasertib -0.022 | [3] -0.014 | [4] 0.076 | [5] 0.053 | saracatinib 0.031 | sotrastaurin -0.034 | alvocidib -0.001 | Tubastatin A 0.05 | [6] 0.017 | defactinib 0.02 | [7] 0.014 | encorafenib 0.012 | [8] 0.094 | alisertib -0.023 | [9] -0.001 | gefitinib -0.014

SLC16A1 (UniProt P53985)
inactive: vemurafenib 0.026 | [1] -0.015 | barasertib -0.051 | [2] 0.07 | volasertib 0.043 | [3] -0.034 | saracatinib -0.003 | sotrastaurin 0.02 | alvocidib -0.133 | Tubastatin A -0.012 | [6] 0.042 | defactinib -0.007 | [7] 0.024 | encorafenib -0.016 | [8] -0.059 | alisertib 0.045 | [9] 0.018 | gefitinib 0.032
active: [4] -0.419 | [5] 0.256

SH3GLB1 isoform 2 (UniProt Q9Y371)
inactive: vemurafenib -0.019 | [1] 0.018 | barasertib 0.022 | [2] -0.052 | volasertib -0.03 | [3] 0.04 | [4] -0.033 | [5] 0.008 | saracatinib 0.043 | sotrastaurin 0.042 | alvocidib -0.034 | Tubastatin A -0.132 | [6] -0.018 | defactinib 0.004 | [7] -0.109 | encorafenib 0.078 | [8] 0.065 | alisertib -0.009 | [9] -0.025 | gefitinib 0.04

SERPINF1 (UniProt P36955)
inactive: vemurafenib -0.024 | [1] 0.084 | barasertib -0.066 | [2] 0.047 | volasertib 0.042 | [3] 0.001 | [4] 0.029 | [5] 0.002 | saracatinib -0.034 | sotrastaurin -0.004 | alvocidib 0.021 | Tubastatin A 0.023 | [6] 0.041 | defactinib -0.069 | [7] -0.07 | encorafenib 0.001 | [8] -0.045 | alisertib 0.004 | [9] 0.031 | gefitinib 0.019

SH3BGR (UniProt P55822)
inactive: vemurafenib 0.009 | [1] 0.016 | barasertib 0.073 | [2] 0.009 | volasertib 0.048 | [3] 0.014 | [4] 0.01 | [5] 0.01 | saracatinib -0.024 | sotrastaurin 0.053 | alvocidib -0.01 | Tubastatin A -0.006 | [6] -0.03 | defactinib 0.037 | [7] 0.043 | encorafenib -0.036 | [8] -0.068 | alisertib -0.04 | [9] 0.003 | gefitinib -0.011

SIL1 (UniProt Q9H173)
inactive: vemurafenib 0.038 | [1] 0.039 | barasertib 0 | [2] 0.044 | volasertib -0.001 | [3] -0.046 | [4] -0.071 | [5] 0.056 | saracatinib -0.004 | sotrastaurin 0.037 | alvocidib 0.007 | Tubastatin A 0.049 | [6] -0.024 | defactinib -0.014 | [7] 0.017 | encorafenib 0.024 | [8] -0.004 | alisertib 0.006 | [9] 0.028 | gefitinib 0.057

2 records picked at random from the list so far, as already listed:
SH3BGR (UniProt P55822)
inactive: vemurafenib 0.009 | [1] 0.016 | barasertib 0.073 | [2] 0.009 | volasertib 0.048 | [3] 0.014 | [4] 0.01 | [5] 0.01 | saracatinib -0.024 | sotrastaurin 0.053 | alvocidib -0.01 | Tubastatin A -0.006 | [6] -0.03 | defactinib 0.037 | [7] 0.043 | encorafenib -0.036 | [8] -0.068 | alisertib -0.04 | [9] 0.003 | gefitinib -0.011

SETD1A (UniProt O15047)
inactive: vemurafenib 0.012 | [1] 0.056 | barasertib 0.067 | [2] -0.096 | volasertib -0.022 | [3] -0.014 | [4] 0.076 | [5] 0.053 | saracatinib 0.031 | sotrastaurin -0.034 | alvocidib -0.001 | Tubastatin A 0.05 | [6] 0.017 | defactinib 0.02 | [7] 0.014 | encorafenib 0.012 | [8] 0.094 | alisertib -0.023 | [9] -0.001 | gefitinib -0.014

Later entries

SETD2 (UniProt Q9BYW2)
inactive: vemurafenib 0.067 | [1] -0.014 | barasertib 0.004 | [2] -0.055 | volasertib 0.007 | [3] -0.064 | [4] -0.074 | [5] 0 | saracatinib 0.011 | sotrastaurin 0.013 | alvocidib -0.031 | Tubastatin A 0.014 | [6] -0.052 | defactinib -0.088 | [7] 0.018 | encorafenib 0.003 | [8] 0.032 | alisertib 0.043 | [9] 0.05 | gefitinib -0.112
